The results in this text go back to patent US20090068195A1.

Chains of the proteins cited; added tags and fusions are not shown. Lines headed by an entry give the natural chain unless they say otherwise; changes in a name come on top.
UniProt P35225: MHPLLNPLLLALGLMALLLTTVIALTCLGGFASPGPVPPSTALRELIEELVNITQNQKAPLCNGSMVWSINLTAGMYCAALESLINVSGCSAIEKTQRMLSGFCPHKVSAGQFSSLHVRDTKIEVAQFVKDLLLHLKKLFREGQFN

These are yes or no findings as the source states them, for the method shown. Some results given as binding are weak or reduced against the parent protein; the word gives no strength.

The target in test [1] is recombinant human IL-13-FLAG (human) (UniProt P35225). In words: ELISA, recombinant human IL-13-FLAG captured by anti-FLAG antibody, detection with anti-human IgG (Fc)-HRP.
For test [2], the target named is FLAG-tagged NHP IL-13 (cynomolgus monkey). In words: competition ELISA on coated IL-13Rα1-Fc and IL-13Rα2-Fc.
Test [3] shares this target. In words: competition ELISA: IL-13Ralpha2-Fc coated on the plate, FLAG-tagged NHP IL-13 added with rising MJ2-7; the blocked partner is IL-13Ralpha2-Fc.
Test [4] has the same target. In words: competition ELISA: IL-13Ralpha1-Fc coated on the plate, FLAG-tagged NHP IL-13 added with rising MJ2-7; the blocked partner is IL-13Ralpha1-Fc.
Test [5] concerns the target recombinant human IL-13-FLAG (human) (UniProt P35225). In words: competitive ELISA on anti-FLAG coated plate, used to quantify the antibody in sheep serum.

B1: humanized MJ2-7 v.2-11 (antibody, human IgG1, kappa, V domains shown)
VH: EVQLVESGGGLVQPGGSLRLSCAASGFNIKDTYIHWVRQAPGKGLEWIGRIDPANDNIKYDPKFQGRFTISADNAKNSAYLQMNSLRAEDTAVYYCARSEENWYDFFDYWGQGTLVTVSS
VL: DIQMTQSPSSLSASVGDRVTITCRSSQSIVHSNGNTYLEWYQQKPGKAPKLLIYKVSNRFSGVPSRFSGSGSGTDFTLTISSLQPEDFATYYCFQGSHIPYTFGGGTKVEIKR
Turning to B1, the binding result in test [1] was “binds”.

B2: mouse monoclonal antibody MJ 2-7 (antibody, mouse IgG1, V domains shown)
VH: EVQLQQSGAELVKPGASVKLSCTGSGFNIKDTYIHWVKQRPEQGLEWIGRIDPANDNIKYDPKFQGKATITADTSSNTAYLQLNSLTSEDTAVYYCARSEENWYDFFDYWGQGTTLTVSS
VL: DVLMTQTPLSLPVSLGDQASISCRSSQSIVHSNGNTYLEWYLQKPGQSPKLLIYKVSNRFSGVPDRFSGSGSGTDFTLKISRVEAEDLGVYYCFQGSHIPYTFGGGTKLEIK
Consider B2, for which the binding result in test [2], in test [3] and in test [4] was “binds” each time.

B3: humanized 13.2v.2 (antibody, V domains shown)
VH: EVQLVESGGGLVQPGGSLRLSCAASGFTFISYAMSWVRQAPGKGLEWVASISSGGNTYYPDSVKGRFTISRDNAKNSLYLQMNSLRAEDTAVYYCARLDGYYFGFAYWGQGTLVTVSS
VL: DIQMTQSPSSLSASVGDRVTITCKASESVDNYGKSLMHWYQQKPGKAPKLLIYRASNLESGVPSRFSGSGSGTDFTLTISSLQPEDFATYYCQQSNEDPWTFGGGTKVEIK
Turning to B3, the binding entry in test [5] is reported as “binds”.
